Laboratory results from patent US4968669A, “Parathyroid hormone antagonists” (Merck & Co., Inc., priority 1989, dated 1990).
At least one peptide structure holds a part that was inferred or is arguable (an end, a ring closure or a residue).

Columns and labels:
[1] = biological target: T1, PTH (Homo sapiens, UniProt Q03431); experiment: In vitro PTH inhibition / agonist activity (general statement)
T1 sequence (Q03431 27-593): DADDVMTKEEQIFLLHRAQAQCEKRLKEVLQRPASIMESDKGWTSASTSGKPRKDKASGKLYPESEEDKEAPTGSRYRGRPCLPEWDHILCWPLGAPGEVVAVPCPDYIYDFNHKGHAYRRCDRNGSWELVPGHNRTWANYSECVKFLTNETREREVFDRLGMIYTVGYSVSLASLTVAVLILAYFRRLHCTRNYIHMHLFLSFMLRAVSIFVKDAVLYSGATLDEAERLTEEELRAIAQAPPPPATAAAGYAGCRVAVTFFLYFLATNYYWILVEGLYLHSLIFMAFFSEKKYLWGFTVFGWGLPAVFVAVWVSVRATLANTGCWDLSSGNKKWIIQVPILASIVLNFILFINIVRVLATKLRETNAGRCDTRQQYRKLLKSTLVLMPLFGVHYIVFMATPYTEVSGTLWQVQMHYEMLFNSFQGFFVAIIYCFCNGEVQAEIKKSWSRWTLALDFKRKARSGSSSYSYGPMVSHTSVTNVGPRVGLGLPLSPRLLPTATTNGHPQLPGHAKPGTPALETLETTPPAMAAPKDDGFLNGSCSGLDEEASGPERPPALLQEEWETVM

[2] = biological target: PTH-stimulated cyclic AMP production by bovine renal membranes; experiment: Bovine renal membrane adenylate cyclase; assay type: biochemical; conditions: 3nM [Nle8,18,Tyr34]bPTH-(1-34)NH2 agonist, 30° C for 30 min
[3] = test system: cyclic AMP stimulation by [Nle^8,18,Tyr^34 ]bPTH(1-34)NH2 in ROS 17/2.8 cells; experiment: ROS 17/2.8 assay: inhibition of cyclic AMP stimulation by PTH agonist; assay type: cell-based, rat; conditions: 1 nM [Nle8,18,Tyr34]bPTH(1-34)NH2 agonist, 5 minutes at 37° C, IBMX, read-out: Adenylate Cyclase KI

With `CSCC[C@H](NC(=O)[C@H](CO)NC(=O)[C@H](CC(N)=O)NC(=O)[C@H](CC(C)C)NC(=O)[C@H](Cc1c[nH]cn1)NC(=O)[C@H](CCCCN)NC(=O)[C@@H](Cc1c[nH]c2ccccc12)NC(=O)[C@H](CC(C)C)NC(=O)[C@H](CC(N)=O)NC(=O)[C@H](Cc1c[nH]cn1)NC(=O)[C@H](CCSC)NC(=O)[C@@H](N)CC(C)C)C(=O)N[C@@H](CCC(=O)O)C(=O)N[C@@H](CCCNC(=N)N)C(=O)N[C@H](C(=O)N[C@@H](CCC(=O)O)C(=O)N[C@@H](Cc1c[nH]c2ccccc12)C(=O)N[C@@H](CC(C)C)C(=O)N[C@@H](CCCNC(=N)N)C(=O)N[C@@H](CCCCN)C(=O)N[C@@H](CCCCN)C(=O)N[C@@H](CC(C)C)C(=O)N[C@@H](CCC(N)=O)C(=O)N[C@@H](CC(=O)O)C(=O)N[C@H](C(=O)N[C@@H](Cc1c[nH]cn1)C(=O)N[C@@H](CC(N)=O)C(=O)N[C@@H](Cc1ccc(O)cc1)C(N)=O)C(C)C)C(C)C` [[D-Trp^12,Tyr^34]hPTH(7-34)NH2] the Agonist activity [1] was “do not act as an agonists” and the “Inhibition of PTH” value [1] was “inhibit PTH in vitro”.
For `CCCC[C@H](NC(=O)[C@H](CO)NC(=O)[C@H](CO)NC(=O)[C@H](CC(C)C)NC(=O)[C@H](Cc1c[nH]cn1)NC(=O)[C@H](CCCCN)NC(=O)CNC(=O)[C@H](CC(C)C)NC(=O)[C@H](CC(N)=O)NC(=O)[C@H](Cc1c[nH]cn1)NC(=O)[C@H](CCCC)NC(=O)[C@@H](N)Cc1ccccc1)C(=O)N[C@@H](CCC(=O)O)C(=O)N[C@@H](CCCNC(=N)N)C(=O)N[C@H](C(=O)N[C@@H](CCC(=O)O)C(=O)N[C@@H](Cc1c[nH]c2ccccc12)C(=O)N[C@@H](CC(C)C)C(=O)N[C@@H](CCCNC(=N)N)C(=O)N[C@@H](CCCCN)C(=O)N[C@@H](CCCCN)C(=O)N[C@@H](CC(C)C)C(=O)N[C@@H](CCC(N)=O)C(=O)N[C@@H](CC(=O)O)C(=O)N[C@H](C(=O)N[C@@H](Cc1c[nH]cn1)C(=O)N[C@@H](CC(N)=O)C(=O)N[C@@H](Cc1ccc(O)cc1)C(N)=O)C(C)C)C(C)C` [[Nle^8,18,Tyr^34]bPTH(7-34)NH2], the Ki [2] was 1.63 ± 0.35 µM.
In the case of `CSCC[C@H](NC(=O)[C@H](CO)NC(=O)[C@H](CO)NC(=O)[C@H](CC(C)C)NC(=O)[C@H](Cc1c[nH]cn1)NC(=O)[C@H](CCCCN)NC(=O)CNC(=O)[C@H](CC(C)C)NC(=O)[C@H](CC(N)=O)NC(=O)[C@H](Cc1c[nH]cn1)NC(=O)[C@H](CCSC)NC(=O)[C@@H](N)Cc1ccccc1)C(=O)N[C@@H](CCC(=O)O)C(=O)N[C@@H](CCCNC(=N)N)C(=O)N[C@H](C(=O)N[C@@H](CCC(=O)O)C(=O)N[C@@H](Cc1c[nH]c2ccccc12)C(=O)N[C@@H](CC(C)C)C(=O)N[C@@H](CCCNC(=N)N)C(=O)N[C@@H](CCCCN)C(=O)N[C@@H](CCCCN)C(=O)N[C@@H](CC(C)C)C(=O)N[C@@H](CCC(N)=O)C(=O)N[C@@H](CC(=O)O)C(=O)N[C@H](C(=O)N[C@@H](Cc1c[nH]cn1)C(=O)N[C@@H](CC(N)=O)C(=O)N[C@@H](Cc1ccc(O)cc1)C(N)=O)C(C)C)C(C)C` [[Tyr^34]bPTH(7-34)NH2], the Ki [3] is reported as 2.72 ± 0.52 µM and the Ki [2] is reported as 0.88 ± 0.07 µM.
